Measurements reported in PubChem BioAssay AID1259331 (Drosophila RNAi Screening Center, 2017).
Shown is an unselected part of about 3,100 reagents. Of all reagents, 126 (4.1%) were called active. 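Calls are per reagent; zinc was so toxic that few knock-downs lowered ATP further, so most hits raise ATP.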 Raw values are not corrected between plates. A number with no mark means an inactive call. The numbers tell different reagents against one gene apart. A plus sign joins genes that one reagent is predicted to hit. Reagent sequences are not shown. Not given: the amount of reagent.

Purpose: 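Fly transmembrane-protein genes that affect zinc toxicity in cultured cells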 (primary screen)
System: Drosophila S2R+ cells
Knock-down reagent: long dsRNA against Drosophila genes
Timing: 5 days (4 days knock-down, then 1 day zinc)
Challenge: zinc chloride at 15 mM final level for 1 day
Read-out: 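Luminescent ATP assay standing in for viability; Z score is the mean over three replicate plates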
Direction: mean Z score: higher = more ATP than other wells, better survival under zinc; ATP luminescence: higher = more ATP, more viable cells
Active means: 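Hit when the absolute Z score is greater than 1.5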
Calls: active = hit, ATP up or down; inactive = not a hit

MFS10 #1
- mean Z score: -0.627
- ATP luminescence, replicate 1: 38816
- ATP luminescence, replicate 2: 38633

MFS10 #2
- mean Z score: -0.341
- ATP luminescence, replicate 1: 58797
- ATP luminescence, replicate 2: 46914

Vamp7
- mean Z score: -0.315
- ATP luminescence, replicate 1: 1.01e5
- ATP luminescence, replicate 2: 63635

Pss #1
- mean Z score: -0.126
- ATP luminescence, replicate 1: 72834
- ATP luminescence, replicate 2: 57802

Pss #2
- mean Z score: -0.318
- ATP luminescence, replicate 1: 43162
- ATP luminescence, replicate 2: 48887

ldd #1
- mean Z score: -0.337
- ATP luminescence, replicate 1: 38239
- ATP luminescence, replicate 2: 38942

ldd #2
- mean Z score: -0.445
- ATP luminescence, replicate 1: 41959
- ATP luminescence, replicate 2: 45148

CG12490
- mean Z score: 0.413
- ATP luminescence, replicate 1: 56225
- ATP luminescence, replicate 2: 42474

CG30049 #1
- mean Z score: 0.00822
- ATP luminescence, replicate 1: 48756
- ATP luminescence, replicate 2: 46863

CG30049 #2
- mean Z score: -0.716
- ATP luminescence, replicate 1: 60015
- ATP luminescence, replicate 2: 40982

Gr64d + Gr64e #1
- mean Z score: -0.215
- ATP luminescence, replicate 1: 57339
- ATP luminescence, replicate 2: 58831

Gr64d + Gr64e #2
- mean Z score: -0.369
- ATP luminescence, replicate 1: 58831
- ATP luminescence, replicate 2: 56758

Gr64d + Gr64e #3
- mean Z score: -0.202
- ATP luminescence, replicate 1: 55813
- ATP luminescence, replicate 2: 61141

Copied from the list:
Under “ATP luminescence, replicate 1”, Gr64d + Gr64e #1 has 57339
Result of CG12490 under “ATP luminescence, replicate 2”: 42474
